Where “and” joins values, the source holds several entries; their conditions need not be identical. Equal values may be shown once. Entries after “also recorded” stand apart in the source; their conditions may differ.
Tests used:
[1] = system: primary human hepatocytes (PHH); assay: Neutral lipids with Nile red in primary human hepatocytes; assay type: cell-based; settings: 4 days
Experimental: Primary human hepatocytes (PHH) were purchased from Biopredic International (Saint-Grégoire, France). Cells were seeded by the supplier in coated 96-well plates at a density of 5 × 10^4 cells/well. Upon receipt, culture medium was removed and replaced by William’s E medium supplemented as previously described for HepaRG cell differentiation, except for DMSO set at 1%. After 2–3 days, cells were treated as for HepaRG cells. For HepaRG cells and PHH, cells were always maintained in incubators at 37 °C with 5% CO2 and saturating humidity.
Cells were then incubated with PBS containing 0.1 μg/mL Nile red for 30 min and washed once. […] For each well, four pictures were taken at a magnification of × 20 and analyzed with Columbus software (PerkinElmer) for quantification. These pictures were always taken in four different areas around the center of each well, and these areas were the same from one well to another, as programmed by the Columbus software. This software was also designed to count only living cells after exclusion of dying cells harboring nuclei with abnormal shape or altered Hoechst intensity. […] Neutral lipids were then normalized per number of nuclei and expressed relative to control cells. Examples of images used for neutral lipid quantification are shown in Supplementary Fig. 2.

[2] = system: fatty acid synthase (FASN); assay: RT-qPCR FASN mRNA in HepaRG cells; assay type: cell-based, human; settings: 4 days, vs control
Experimental: (§1) Total RNA was extracted with the Nucleospin RNA isolation system purchased from Macherey-Nagel (Düren, Germany), which included a DNase treatment step. Quantification of isolated RNAs was assessed using a Nanodrop 1000 (Thermo Fisher Scientific, Waltham, MA). RNAs were reverse-transcribed into cDNAs using the High-Capacity cDNA Reverse Transcription Kit purchased from Applied Biosystems (Woolston, UK). Gene expression was assessed by real-time quantitative PCR analysis (RT-qPCR) using SYBR Green PCR Master Mix (Applied Biosystems) and a 384-well QuantStudio™ 7 Flex Real-Time PCR System (Thermo Fisher Scientific). Sequences of the primers used to measure gene expression are presented in Supplementary Table 3. Expression of GAPDH was chosen as reference and the 2^−ΔΔCt calculation method was used to express the relative expression of each selected gene.

HepaRG cells = assay: Cellular ATP level (CellTiter-Glo) in HepaRG cells; assay type: cell-based, human; settings: 4 days, vs controls
Experimental: Cellular ATP level was measured using the CellTiter-Glo® Luminescent Cell Viability assay purchased from Promega (Charbonnières, France), according to the manufacturer’s instructions. Briefly, control and treated HepaRG cells were first washed with warm PBS and kept for 30 min at room temperature in phenol red-free William’s E medium. Cells were next incubated with the CellTiter-Glo® reagent for 10 min at room temperature. Cells were then transferred in opaque-walled multiwell plates and the luminescent signal was quantified using a POLARstar Omega microplate reader (BMG Labtech, Ortenberg, Germany). Results were expressed in comparison to control cells.

[3] = system: mitochondrial fatty acid oxidation (mtFAO); assay: mtFAO with [U-14C]palmitic acid in HepaRG cells; assay type: cell-based, human; settings: 4 days, vs control
Experimental: Experiments were carried out on passages 9 to 16. […] DPEN was dissolved in water.
mtFAO was assessed by measuring the acid-soluble radiolabeled metabolites resulting from the mitochondrial oxidation of [U-^14C]palmitic acid as previously described (Anthérieu et al. [2011]), with slight modifications. Briefly, culture medium was removed and cells were washed with warm PBS before addition of phenol red-free William’s E medium containing 1% fatty acid-free BSA, [U-^14C]palmitic acid (185 Bq per well, corresponding to 0.5 pM), 100 μM cold palmitic acid, 1 mM L-carnitine, and 1% DMSO. After 3 h of incubation at 37 °C, perchloric acid (final concentration, 6%) was added and plates were centrifuged at 2000×g for 10 min, and supernatant was counted for [^14C]-labeled acid-soluble β-oxidation products using a Tri-Carb 4910TR liquid scintillation counter (PerkinElmer). Results were normalized to total protein content determined using the Pierce BCA assay kit from Thermo Fischer Scientific (Waltham, MA). Results were expressed in comparison to control cells.

[4] = system: fatty acid translocase (FAT, also known as CD36); assay: RT-qPCR FAT/CD36 mRNA in HepaRG cells; assay type: cell-based, human; settings: 4 days, vs control
Experimental: as §1

[5] = treated patients; ref Schulz M et al., Crit Care 2012 ;16(4):R136; listed as Amiodarone (AMIO); cited from earlier work
[6] = Maximum plasma concentration (Cmax) in patients; settings: worked out from cited Cmax in patients
[7] = cited from earlier work

Concentration corresponding to 100xCmax [6]: 290 µM
Compound: CCCCc1oc2ccccc2c1C(=O)c1cc(I)c(OCCN(CC)CC)c(I)c1 [AMIO, amiodarone]
Steatosis in PHH batches (six batches tested) [1]: induce steatosis in the six different PHH batches | FASN mRNA level [2]: tended to increase mRNA level | Loss of cellular ATP relative to the maximum concentration selected for the study (HepaRG cells): 25 µM (profound loss of cellular ATP for higher concentrations, as shown in Supp. fig 1) | Effect on mtFAO [3]: inhibited this metabolic pathway; also recorded: moderate | FAT/CD36 mRNA level [4]: significantly augmented | Therapeutic blood (or plasma) concentration in patients [5]: 1 - 2 mg/L and 1.6 - 3.1 µM | Cmax ([7]; read-out: Maximum plasma concentration (Cmax) in patients, ref given per drug): ≤ 2900 nM | Maximum plasma concentration (Cmax) in patients ([7]; ref given per drug): ≤ 1.87 mg/L
